PMC7761120
Results are given in words; binding and its absence hold for the method and conditions named. Binding seen in cells or lysates may run through a third protein. These calls come from enrichment with a bait or labelling near it, and not all partners need be listed.

Sequences of proteins named here, by UniProt entry; tags and fusion partners are left off.
UniProt P21333: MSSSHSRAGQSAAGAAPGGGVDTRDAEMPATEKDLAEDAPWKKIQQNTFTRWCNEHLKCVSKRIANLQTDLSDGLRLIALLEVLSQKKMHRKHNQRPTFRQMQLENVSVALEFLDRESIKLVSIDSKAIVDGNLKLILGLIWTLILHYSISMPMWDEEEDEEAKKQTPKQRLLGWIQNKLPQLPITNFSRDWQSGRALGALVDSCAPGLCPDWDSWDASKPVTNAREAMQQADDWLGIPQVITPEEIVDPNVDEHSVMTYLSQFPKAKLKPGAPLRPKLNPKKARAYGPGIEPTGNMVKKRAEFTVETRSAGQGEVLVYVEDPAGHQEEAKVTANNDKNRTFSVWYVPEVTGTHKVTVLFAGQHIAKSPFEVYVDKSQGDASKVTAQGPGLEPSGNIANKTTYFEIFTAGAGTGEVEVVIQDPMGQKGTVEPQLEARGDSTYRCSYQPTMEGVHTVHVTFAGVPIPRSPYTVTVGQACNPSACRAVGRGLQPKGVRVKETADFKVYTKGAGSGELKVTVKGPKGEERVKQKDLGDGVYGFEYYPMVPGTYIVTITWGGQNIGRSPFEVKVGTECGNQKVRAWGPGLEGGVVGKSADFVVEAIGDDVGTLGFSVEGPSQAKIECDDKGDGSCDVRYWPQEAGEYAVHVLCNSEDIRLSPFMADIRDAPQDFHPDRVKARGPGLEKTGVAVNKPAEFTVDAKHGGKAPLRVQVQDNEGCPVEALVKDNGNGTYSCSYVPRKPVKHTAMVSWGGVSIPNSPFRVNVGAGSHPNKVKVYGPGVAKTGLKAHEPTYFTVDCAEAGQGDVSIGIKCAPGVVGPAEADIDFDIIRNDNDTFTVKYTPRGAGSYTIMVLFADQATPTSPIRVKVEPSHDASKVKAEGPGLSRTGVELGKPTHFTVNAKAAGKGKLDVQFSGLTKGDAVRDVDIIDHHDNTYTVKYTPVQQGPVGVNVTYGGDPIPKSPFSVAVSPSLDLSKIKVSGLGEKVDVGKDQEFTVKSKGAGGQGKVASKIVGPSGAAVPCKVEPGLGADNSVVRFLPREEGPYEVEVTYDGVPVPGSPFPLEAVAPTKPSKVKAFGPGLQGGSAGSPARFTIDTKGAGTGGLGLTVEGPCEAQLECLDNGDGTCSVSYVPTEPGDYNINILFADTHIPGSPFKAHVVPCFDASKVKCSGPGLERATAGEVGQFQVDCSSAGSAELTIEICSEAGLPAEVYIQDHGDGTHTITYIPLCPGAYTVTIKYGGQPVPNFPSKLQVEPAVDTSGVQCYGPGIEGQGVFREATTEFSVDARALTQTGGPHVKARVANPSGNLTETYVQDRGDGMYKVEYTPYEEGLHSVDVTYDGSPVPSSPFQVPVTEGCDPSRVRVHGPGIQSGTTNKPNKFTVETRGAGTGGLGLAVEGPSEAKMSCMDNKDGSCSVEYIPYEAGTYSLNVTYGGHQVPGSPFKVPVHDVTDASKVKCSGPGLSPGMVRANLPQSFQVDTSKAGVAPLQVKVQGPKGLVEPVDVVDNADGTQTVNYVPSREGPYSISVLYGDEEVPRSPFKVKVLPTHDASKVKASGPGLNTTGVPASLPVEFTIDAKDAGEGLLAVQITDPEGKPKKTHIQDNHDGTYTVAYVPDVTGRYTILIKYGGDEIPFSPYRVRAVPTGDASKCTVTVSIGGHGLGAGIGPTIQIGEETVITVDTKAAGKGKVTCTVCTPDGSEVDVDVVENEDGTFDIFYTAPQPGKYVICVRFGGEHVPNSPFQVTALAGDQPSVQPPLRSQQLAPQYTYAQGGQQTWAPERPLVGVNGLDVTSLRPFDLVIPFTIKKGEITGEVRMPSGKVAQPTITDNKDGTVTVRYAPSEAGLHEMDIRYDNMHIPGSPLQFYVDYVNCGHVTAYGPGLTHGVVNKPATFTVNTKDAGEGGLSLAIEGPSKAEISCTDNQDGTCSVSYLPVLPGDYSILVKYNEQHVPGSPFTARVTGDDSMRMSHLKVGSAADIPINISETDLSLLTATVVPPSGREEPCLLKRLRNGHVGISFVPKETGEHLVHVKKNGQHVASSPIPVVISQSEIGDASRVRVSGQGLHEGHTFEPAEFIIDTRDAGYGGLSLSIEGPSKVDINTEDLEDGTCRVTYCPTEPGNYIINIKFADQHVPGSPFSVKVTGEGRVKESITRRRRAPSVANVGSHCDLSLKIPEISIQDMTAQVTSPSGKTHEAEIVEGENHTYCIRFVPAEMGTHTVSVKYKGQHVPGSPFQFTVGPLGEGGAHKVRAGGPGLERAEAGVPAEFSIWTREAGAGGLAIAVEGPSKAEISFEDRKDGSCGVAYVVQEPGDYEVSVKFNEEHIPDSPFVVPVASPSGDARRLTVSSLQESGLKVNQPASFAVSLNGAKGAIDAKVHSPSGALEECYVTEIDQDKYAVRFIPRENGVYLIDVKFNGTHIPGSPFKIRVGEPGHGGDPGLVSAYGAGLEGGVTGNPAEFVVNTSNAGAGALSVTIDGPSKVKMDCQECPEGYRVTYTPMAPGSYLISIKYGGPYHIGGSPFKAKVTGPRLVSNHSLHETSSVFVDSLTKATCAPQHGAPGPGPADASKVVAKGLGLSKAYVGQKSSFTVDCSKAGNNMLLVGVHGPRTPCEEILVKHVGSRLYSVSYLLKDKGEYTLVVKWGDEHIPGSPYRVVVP
UniProt P23528: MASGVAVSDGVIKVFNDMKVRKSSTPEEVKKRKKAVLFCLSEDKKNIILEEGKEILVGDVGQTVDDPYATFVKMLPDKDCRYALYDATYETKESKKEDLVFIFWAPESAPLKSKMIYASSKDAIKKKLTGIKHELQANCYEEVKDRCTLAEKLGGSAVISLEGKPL
UniProt P15311: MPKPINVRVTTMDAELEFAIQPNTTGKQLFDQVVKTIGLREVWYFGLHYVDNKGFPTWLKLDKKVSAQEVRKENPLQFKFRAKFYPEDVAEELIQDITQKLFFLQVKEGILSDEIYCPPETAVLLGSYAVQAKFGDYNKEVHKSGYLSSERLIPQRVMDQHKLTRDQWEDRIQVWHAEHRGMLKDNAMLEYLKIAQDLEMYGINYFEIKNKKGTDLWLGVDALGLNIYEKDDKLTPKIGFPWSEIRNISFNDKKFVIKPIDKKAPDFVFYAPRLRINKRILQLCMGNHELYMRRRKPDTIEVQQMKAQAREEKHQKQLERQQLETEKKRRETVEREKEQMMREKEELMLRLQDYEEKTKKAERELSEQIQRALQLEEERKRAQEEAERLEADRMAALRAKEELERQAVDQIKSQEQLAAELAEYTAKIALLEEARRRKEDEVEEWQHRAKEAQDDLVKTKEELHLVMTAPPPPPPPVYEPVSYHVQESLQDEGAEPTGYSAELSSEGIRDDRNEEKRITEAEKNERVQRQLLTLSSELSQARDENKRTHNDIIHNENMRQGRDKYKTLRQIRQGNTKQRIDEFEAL
UniProt Q9Y265: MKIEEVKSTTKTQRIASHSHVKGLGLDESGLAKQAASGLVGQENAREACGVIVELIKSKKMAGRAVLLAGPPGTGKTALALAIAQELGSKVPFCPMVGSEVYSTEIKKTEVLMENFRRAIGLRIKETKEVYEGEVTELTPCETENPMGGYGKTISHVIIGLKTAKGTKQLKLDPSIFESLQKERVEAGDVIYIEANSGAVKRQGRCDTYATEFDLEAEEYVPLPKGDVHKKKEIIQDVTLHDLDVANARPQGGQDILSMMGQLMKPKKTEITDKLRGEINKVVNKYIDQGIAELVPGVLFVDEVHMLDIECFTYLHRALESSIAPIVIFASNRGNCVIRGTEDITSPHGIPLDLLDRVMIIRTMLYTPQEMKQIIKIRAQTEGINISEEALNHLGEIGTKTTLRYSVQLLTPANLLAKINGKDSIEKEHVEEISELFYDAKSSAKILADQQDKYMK

B1: Ladinin-1 (protein, UniProt O00515 1-517)
chain: MAVSRKDWSALSSLARQRTLEDEEEQERERRRRHRNLSSTTDDEAPRLSQNGDRQASASERLPSVEEAEVPKPLPPASKDEDEDIQSILRTRQERRQRRQVVEAAQAPIQERLEAEEGRNSLSPVQATQKPLVSKKELEIPPRRRLSREQRGPWALEEESLVGREPEERKKGVPEKSPVLEKSSMPKKTAPEKSLVSDKTSISEKVLASEKTSLSEKIAVSEKRNSSEKKSVLEKTSVSEKSLAPGMALGSGRRLVSEKASIFEKALASEKSPTADAKPAPKRATASEQPLAQEPPASGGSPATTKEQRGRALPGKNLPSLAKQGASDPPTVASRLPPVTLQVKIPSKEEEADMSSPTQRTYSSSLKRSSPRTISFRMKPKKENSETTLTRSASMKLPDNTVKLGEKLERYHTAIRRSESVKSRGLPCTELFVAPVGVASKRHLFEKELAGQSRAEPASSRKENLRLSGVVTSRLNLWISRTQESGDQDPQEAQKASSATERTQWGQKSDSSLDAEV
B2: Zyxin (protein, UniProt Q15942 1-572)
chain: MAAPRPSPAISVSVSAPAFYAPQKKFGPVVAPKPKVNPFRPGDSEPPPAPGAQRAQMGRVGEIPPPPPEDFPLPPPPLAGDGDDAEGALGGAFPPPPPPIEESFPPAPLEEEIFPSPPPPPEEEGGPEAPIPPPPQPREKVSSIDLEIDSLSSLLDDMTKNDPFKARVSSGYVPPPVATPFSSKSSTKPAAGGTAPLPPWKSPSSSQPLPQVPAPAQSQTQFHVQPQPQPKPQVQLHVQSQTQPVSLANTQPRGPPASSPAPAPKFSPVTPKFTPVASKFSPGAPGGSGSQPNQKLGHPEALSAGTGSPQPPSFTYAQQREKPRVQEKQHPVPPPAQNQNQVRSPGAPGPLTLKEVEELEQLTQQLMQDMEHPQRQNVAVNELCGRCHQPLARAQPAVRALGQLFHIACFTCHQCAQQLQGQQFYSLEGAPYCEGCYTDTLEKCNTCGEPITDRMLRATGKAYHPHCFTCVVCARPLEGTSFIVDQANRPHCVPDYHKQYAPRCSVCSEPIMPEPGRDETVRVVALDKNFHMKCYKCEDCGKPLSIEADDNGCFPLDGHVLCRKCHTARAQT
B3: DAZ-associated protein 1 (protein, UniProt Q96EP5 1-407)
chain: MNNSGADEIGKLFVGGLDWSTTQETLRSYFSQYGEVVDCVIMKDKTTNQSRGFGFVKFKDPNCVGTVLASRPHTLDGRNIDPKPCTPRGMQPERTRPKEGWQKGPRSDNSKSNKIFVGGIPHNCGETELREYFKKFGVVTEVVMIYDAEKQRPRGFGFITFEDEQSVDQAVNMHFHDIMGKKVEVKRAEPRDSKSQAPGQPGASQWGSRVVPNAANGWAGQPPPTWQQGYGPQGMWVPAGQAIGGYGPPPAGRGAPPPPPPFTSYIVSTPPGGFPPPQGFPQGYGAPPQFSFGYGPPPPPPDQFAPPGVPPPPATPGAAPLAFPPPPSQAAPDMSKPPTAQPDFPYGQYAGYGQDLSGFGQGFSDPSQQPPSYGGPSVPGSGGPPAGGSGFGRGQNHNVQGFHPYRR

These molecules were tested against Filamin A (human (endogenous in TCam-2)) (UniProt P21333) (assay: affinity purification with mass spectrometry; immunoprecipitation from TCam-2 total protein lysate (RIPA buffer with protease inhibitor mix) with FLNA-specific antibodies (serum) on Protein G Sepharose beads, 4 °C for 90 min; beads washed, digested on the bead with trypsin, LC-MS/MS; performed three times).

binding, binds:
Cofilin-1 (from UniProt P23528 1-166)
Epiplakin (from UniProt P58107 1-5088)
Ezrin (from UniProt P15311 1-586)
RuvB-like 1 (from UniProt Q9Y265 1-456)
B1
B2
B3
